Values quoted from earlier work, collected in patent publication US8822661B2, “Xylose reductase mutants and uses thereof” (The Board of Trustees of the University of Illinois, priority 2007, dated 2014).
The name of at least one read-out is uncertain.

B1: C. tenuis: xylose reductase (XR) from C. tenuis (protein, UniProt O74237 1-322, looked up)
NAD(P)H-dependent D-xylose …: MSASIPDIKLSSGHLMPSIGFGCWKLANATAGEQVYQAIKAGYRLFDGAEDYGNEKEVGDGVKRAIDEGLVKREEIFLTSKLWNNYHDPKNVETALNKTLADLKVDYVDLFLIHFPIAFKFVPIEEKYPPGFYCGDGNNFVYEDVPILETWKALEKLVAAGKIKSIGVSNFPGALLLDLLRGATIKPAVLQVEHHPYLQQPKLIEFAQKAGVTITAYSSFGPQSFVEMNQGRALNTPTLFAHDTIKAIAAKYNKTPAEVLLRWAAQRGIAVIPKSNLPERLVQNRSFNTFDLTKEDFEEIAKLDIGLRFNDPWDWDNIPIFV
B2: P. siptitus: xylose reductase (XR) from P. siptitus as printed (protein, UniProt P31867 1-318, looked up)
NAD(P)H-dependent D-xylose …: MPSIKLNSGYDMPAVGFGCWKVDVDTCSEQIYRAIKTGYRLFDGAEDYANEKLVGAGVKKAIDEGIVKREDLFLTSKLWNNYHHPDNVEKALNRTLSDLQVDYVDLFLIHFPVTFKFVPLEEKYPPGFYCGKGDNFDYEDVPILETWKALEKLVKAGKIRSIGVSNFPGALLLDLLRGATIKPSVLQVEHHPYLQQPRLIEFAQSRGIAVTAYSSFGPQSFVELNQGRALNTSPLFENETIKAIAAKHGKSPAQVLLRWSSQRGIAIIPKSNTVPRLLENKDVNSFDLDEQDFADIAKLDINLRFNDPWDWDKIPIFV
B3: S. cerevisiae: xylose reductase (XR) from S. cerevisiae (protein, UniProt P38715 2-327, looked up)
NADPH-dependent aldose …: SSLVTLNNGLKMPLVGLGCWKIDKKVCANQIYEAIKLGYRLFDGACDYGNEKEVGEGIRKAISEGLVSRKDIFVVSKLWNNFHHPDHVKLALKKTLSDMGLDYLDLYYIHFPIAFKYVPFEEKYPPGFYTGADDEKKGHITEAHVPIIDTYRALEECVDEGLIKSIGVSNFQGSLIQDLLRGCRIKPVALQIEHHPYLTQEHLVEFCKLHDIQVVAYSSFGPQSFIEMDLQLAKTTPTLFENDVIKKVSQNHPGSTTSQVLLRWATQRGIAVIPKSSKKERLLGNLEIEKKFTLTEQELKDISALNANIRFNDPWTWLDGKFPTFA
B4: wt: wild-type xylose reductase from Neurospora crassa, SEQ ID NO: 1 (NCU 08384.1) (protein, listed as Neurospora crassa)
chain: MVPAIKLNSGFDMPQVGFGLWKVDGSIASDVVYNAIKAGYRLFDGACDYGNEVECGQGVARAIKEGIVKREELFIVSKLWNTFHDGDRVEPIVRKQLADWGLEYFDLYLIHFPVALEYVDPSVRYPPGWHFDGKSEIRPSKATIQETWTAMESLVEKGLSKSIGVSNFQAQLLYDLLRYAKVRPATLQIEHHPYLVQQNLLNLAKAEGIAVTAYSSFGPASFREFNMEHAQKLQPLLEDPTIKAIGDKYNKDPAQVLLRWATQRGLAIIPKSSREATMKSNLNSLDFDLSEEDIKTISGFDRGIRFNQPTNYFSAENLWIFG

Conditions: XR of the named organism; cited from earlier work

Row | Molecule | kcat/KM, xylose
1 | B1 | 300 M⁻¹ s⁻¹
2 | B2 | 600 M⁻¹ s⁻¹
3 | B3 | 1050 M⁻¹ s⁻¹
4 | B4 | 1770 M⁻¹ s⁻¹

Conditions: XR of the named organism; cited from earlier work
Remark: another data set of the same source

Row | Molecule | kcat/KM, NADPH
5 | B1 | 4.52e+06 M⁻¹ s⁻¹
6 | B2 | 2.78e+06 M⁻¹ s⁻¹
7 | B3 | 1.88e+06 M⁻¹ s⁻¹
8 | B4 | 3.333e+07 M⁻¹ s⁻¹
